Measurements reported in paper PMC5547389, “Structure-activity relationships and molecular docking studies of chromene and chromene based azo chromophores: A novel series of potent antimicrobial and anticancer agents” (EXCLI Journal, 2017).
In brackets after ≈: the same amount, converted by molar mass.

How the values were obtained:
Test in all cases: Cytotoxic screening
Format in all cases: cell-based
[1] = tested on: human hepatocellular carcinoma (HEPG-2); conditions: HepG2, read-out: IC50 HepG-2
Method: (§1) Human colon carcinoma (HCT-116), human hepatocellular carcinoma (HEPG-2), adenocarcinomic human alveolar basal epithelial cell (A-549), and human breast adenocarcinoma (MCF-7) cell lines were obtained from the American Type Culture Collection (ATCC, Rockville, MD). The cells were grown on RPMI-1640 medium supplemented with 10 % inactivated fetal calf serum and 50 µg/ml gentamycin. The cells were maintained at 37 °C in a humidified atmosphere with 5 % CO2 and were subcultured two to three times a week. Potential cytotoxicity of the compounds was evaluated on tumor cells using the method of Gangadevi and Muthumary (2007[21]) (Klancnik et al., 2010[36]). The cells were grown as monolayers in growth RPMI-1640. The monolayers of 104 cells adhered at the bottom of the wells in a 96-well microtiter plate incubated for 24 h at 37 °C in a humidified incubator with 5 % CO2. The monolayers were then washed with sterile phosphate buffered saline (0.01 M pH 7.2) and simultaneously the cells were treated with 100 µL from different dilutions of tested sample in fresh maintenance medium and incubated at 37 °C. A control of untreated cells was made in the absence of tested sample. Positive controls containing doxorubicin were also tested as a reference drug for comparison. Six wells were used for each concentration of the test sample. Every 24 hours an observation under the inverted microscope was made. The number of the surviving cells was determined by staining the cells with crystal violet (Mosmann, 1983[42]; Gangadevi and Muthumary, 2007[21]) followed by cell lysing using 33 % glacial acetic acid and reading the absorbance at 590 nm using microplate reader (SunRise, TECAN, Inc, USA) after well mixing. The absorbance values from untreated cells were considered as 100 % proliferation. The number of viable cells was determined using microplate reader as previously mentioned before and the percentage of […] was calculated as [1-(ODt/ODc)] x 100 % where ODt is the mean optical density of wells treated with the tested sample and ODc is the mean optical density of untreated cells. The relation between surviving cells and drug concentration was plotted to get the survival curve of each tumor cell line after treatment with the specified compound. The 50 % inhibitory concentration (IC50), the concentration required to cause toxic effects in 50 % of intact cells, was estimated from graphic plots.
(§2) The in vitro cytotoxic activity was performed by MTT assay (Mosmann, 1983[42]; Alley et al., 1988[6]) against three human carcinoma cell lines: Human colon carcinoma (HCT-116), human breast adenocarcinoma (MCF-7), and human hepatocellular carcinoma (HEPG-2).

[2] = tested on: Human colon carcinoma (HCT-116); conditions: HCT-116, read-out: IC50 HCT-116
Method: as §1, §2

[3] = tested on: human breast adenocarcinoma (MCF-7); conditions: MCF7, read-out: IC50 MCF-7
Method: as §1, §2

Row | SMILES | IC50 [1] [µg/mL] | IC50 [2] [µg/mL] | IC50 [3] [µg/mL]
1 | COc1cc2c(c(OC)c1OC)-c1ccc(OC)c(=O)cc1[C@@H](NC(C)=O)CC2 [Colchicine, reference compound] | 10.6 (≈ 26.5 µM) | 42.8 (≈ 107 µM) | 17.7 (≈ 44.3 µM)
2 | Cc1ccc(NC(=O)c2ccc(CN3CCN(C)CC3)cc2)cc1Nc1nccc(-c2cccnc2)n1 [Imatinib, reference compound] | 18.6 (≈ 37.7 µM) |  | 24.6 (≈ 49.8 µM)
